# Measured values from PMC10707033.
# Chains of the proteins cited; added tags and fusions are not shown. Residues count along the entry.
# UniProt P36544, residues 23-502: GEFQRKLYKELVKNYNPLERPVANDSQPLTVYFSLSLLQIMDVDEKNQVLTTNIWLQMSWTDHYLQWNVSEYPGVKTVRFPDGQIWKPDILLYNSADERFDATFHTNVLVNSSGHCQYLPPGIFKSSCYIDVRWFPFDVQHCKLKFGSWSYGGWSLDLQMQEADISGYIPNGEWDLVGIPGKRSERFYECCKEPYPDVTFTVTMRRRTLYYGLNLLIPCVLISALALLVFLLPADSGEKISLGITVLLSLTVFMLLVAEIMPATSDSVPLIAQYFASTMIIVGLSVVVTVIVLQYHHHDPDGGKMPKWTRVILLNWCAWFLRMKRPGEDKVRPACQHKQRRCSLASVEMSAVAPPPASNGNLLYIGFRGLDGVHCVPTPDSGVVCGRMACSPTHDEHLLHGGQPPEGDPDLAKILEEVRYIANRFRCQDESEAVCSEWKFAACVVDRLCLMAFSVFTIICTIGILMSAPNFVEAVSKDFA
# UniProt P60615, residues 22-95: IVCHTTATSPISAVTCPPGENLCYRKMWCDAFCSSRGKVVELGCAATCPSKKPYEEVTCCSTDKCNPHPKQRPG
# No constants are given. Whether binding was seen depends on the method and setting. Some results given as binding are weak or reduced against the parent protein; the word gives no strength.
# Molecular target: human neuronal α7 nicotinic acetylcholine receptor (human) (UniProt P36544)
# Assay: radioligand binding; only the binder purified
substance,measurement,value
[125I]-labeled α-bungarotoxin (from UniProt P60615 22-95),binding,binds
